Reference: the supplement of paper PMC10849652
Some of the results follow.

Sequences of proteins named here, by UniProt entry; tags and fusion partners are left off. A change or cut given only in a name is not applied to a line headed by its entry.
UniProt Q969W3: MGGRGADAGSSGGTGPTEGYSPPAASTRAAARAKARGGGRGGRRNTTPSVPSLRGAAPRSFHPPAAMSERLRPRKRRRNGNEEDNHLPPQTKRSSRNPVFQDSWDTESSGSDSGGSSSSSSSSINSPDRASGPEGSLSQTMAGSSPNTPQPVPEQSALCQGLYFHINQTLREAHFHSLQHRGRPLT
UniProt Q9H8W3: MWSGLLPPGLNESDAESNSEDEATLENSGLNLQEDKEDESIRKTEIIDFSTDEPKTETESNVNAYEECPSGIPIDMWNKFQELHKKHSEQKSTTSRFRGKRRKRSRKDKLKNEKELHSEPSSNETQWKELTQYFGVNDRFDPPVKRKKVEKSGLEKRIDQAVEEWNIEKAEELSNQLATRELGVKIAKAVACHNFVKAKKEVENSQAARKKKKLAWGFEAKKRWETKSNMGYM
UniProt Q9BQ89: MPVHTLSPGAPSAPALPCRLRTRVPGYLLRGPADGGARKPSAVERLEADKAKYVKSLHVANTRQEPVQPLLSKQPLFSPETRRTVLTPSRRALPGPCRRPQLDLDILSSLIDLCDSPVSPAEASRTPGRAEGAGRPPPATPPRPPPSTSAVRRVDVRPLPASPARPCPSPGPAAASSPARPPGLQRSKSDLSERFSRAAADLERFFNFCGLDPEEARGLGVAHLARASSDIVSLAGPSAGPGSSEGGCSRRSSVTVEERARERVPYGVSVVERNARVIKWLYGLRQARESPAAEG
UniProt Q9Y421: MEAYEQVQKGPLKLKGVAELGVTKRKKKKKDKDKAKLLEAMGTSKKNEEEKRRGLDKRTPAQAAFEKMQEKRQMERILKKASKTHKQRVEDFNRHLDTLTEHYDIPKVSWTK
UniProt Q9NY74: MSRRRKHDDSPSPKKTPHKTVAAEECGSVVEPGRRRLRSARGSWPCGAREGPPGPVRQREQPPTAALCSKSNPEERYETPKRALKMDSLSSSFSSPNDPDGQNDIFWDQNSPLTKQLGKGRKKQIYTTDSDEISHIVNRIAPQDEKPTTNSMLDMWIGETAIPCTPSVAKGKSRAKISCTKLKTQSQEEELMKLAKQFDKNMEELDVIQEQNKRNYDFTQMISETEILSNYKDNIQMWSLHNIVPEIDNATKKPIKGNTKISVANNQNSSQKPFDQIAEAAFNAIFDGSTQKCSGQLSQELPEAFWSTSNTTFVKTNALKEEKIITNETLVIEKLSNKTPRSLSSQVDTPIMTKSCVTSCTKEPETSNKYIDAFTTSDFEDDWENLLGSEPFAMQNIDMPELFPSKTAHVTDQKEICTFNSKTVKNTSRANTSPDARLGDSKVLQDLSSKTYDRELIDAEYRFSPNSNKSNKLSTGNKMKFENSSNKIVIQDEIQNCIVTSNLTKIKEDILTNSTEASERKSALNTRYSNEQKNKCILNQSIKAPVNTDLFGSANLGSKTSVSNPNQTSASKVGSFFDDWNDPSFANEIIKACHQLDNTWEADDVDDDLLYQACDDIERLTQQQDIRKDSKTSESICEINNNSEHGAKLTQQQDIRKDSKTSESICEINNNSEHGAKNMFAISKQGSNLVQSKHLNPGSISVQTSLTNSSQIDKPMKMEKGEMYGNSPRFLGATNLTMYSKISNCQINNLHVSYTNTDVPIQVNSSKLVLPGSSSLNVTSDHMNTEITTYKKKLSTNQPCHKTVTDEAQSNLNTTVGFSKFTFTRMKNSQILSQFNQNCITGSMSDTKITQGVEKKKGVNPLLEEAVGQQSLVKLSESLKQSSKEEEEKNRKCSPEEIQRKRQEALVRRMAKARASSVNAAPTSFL
UniProt Q96PZ2, whole entry, looked up: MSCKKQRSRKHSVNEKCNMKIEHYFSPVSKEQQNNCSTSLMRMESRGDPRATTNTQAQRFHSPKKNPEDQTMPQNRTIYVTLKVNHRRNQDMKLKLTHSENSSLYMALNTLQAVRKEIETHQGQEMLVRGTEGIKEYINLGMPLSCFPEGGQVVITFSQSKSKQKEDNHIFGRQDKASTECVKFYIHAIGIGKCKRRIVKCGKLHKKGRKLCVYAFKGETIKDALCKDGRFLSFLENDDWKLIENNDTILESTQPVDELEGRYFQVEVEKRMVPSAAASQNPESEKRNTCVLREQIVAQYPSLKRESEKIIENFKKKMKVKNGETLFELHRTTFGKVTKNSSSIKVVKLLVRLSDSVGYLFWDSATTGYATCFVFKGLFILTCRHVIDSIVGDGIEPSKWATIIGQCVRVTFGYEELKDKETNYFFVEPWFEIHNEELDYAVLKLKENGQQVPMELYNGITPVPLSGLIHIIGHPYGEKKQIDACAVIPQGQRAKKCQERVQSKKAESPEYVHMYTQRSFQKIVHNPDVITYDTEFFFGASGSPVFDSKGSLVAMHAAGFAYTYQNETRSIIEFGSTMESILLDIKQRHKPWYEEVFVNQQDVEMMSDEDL
UniProt Q8IXR5: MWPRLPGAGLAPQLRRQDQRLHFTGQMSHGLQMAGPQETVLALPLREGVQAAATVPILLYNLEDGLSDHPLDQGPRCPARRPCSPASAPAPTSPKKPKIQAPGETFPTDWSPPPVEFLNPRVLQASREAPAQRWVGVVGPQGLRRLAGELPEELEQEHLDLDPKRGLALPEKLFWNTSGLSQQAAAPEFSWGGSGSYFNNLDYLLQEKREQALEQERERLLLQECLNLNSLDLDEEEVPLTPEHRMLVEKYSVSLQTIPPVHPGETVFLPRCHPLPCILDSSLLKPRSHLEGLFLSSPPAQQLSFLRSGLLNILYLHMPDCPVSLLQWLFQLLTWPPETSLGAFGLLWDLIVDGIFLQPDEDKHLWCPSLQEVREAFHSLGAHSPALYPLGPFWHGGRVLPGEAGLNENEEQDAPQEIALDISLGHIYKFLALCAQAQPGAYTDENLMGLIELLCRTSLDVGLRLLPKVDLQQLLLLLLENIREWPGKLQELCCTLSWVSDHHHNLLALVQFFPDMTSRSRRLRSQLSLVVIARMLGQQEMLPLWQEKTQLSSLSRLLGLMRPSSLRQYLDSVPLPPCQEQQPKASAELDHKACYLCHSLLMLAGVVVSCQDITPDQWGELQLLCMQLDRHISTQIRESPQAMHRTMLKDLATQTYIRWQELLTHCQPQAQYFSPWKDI
UniProt Q8IWE2: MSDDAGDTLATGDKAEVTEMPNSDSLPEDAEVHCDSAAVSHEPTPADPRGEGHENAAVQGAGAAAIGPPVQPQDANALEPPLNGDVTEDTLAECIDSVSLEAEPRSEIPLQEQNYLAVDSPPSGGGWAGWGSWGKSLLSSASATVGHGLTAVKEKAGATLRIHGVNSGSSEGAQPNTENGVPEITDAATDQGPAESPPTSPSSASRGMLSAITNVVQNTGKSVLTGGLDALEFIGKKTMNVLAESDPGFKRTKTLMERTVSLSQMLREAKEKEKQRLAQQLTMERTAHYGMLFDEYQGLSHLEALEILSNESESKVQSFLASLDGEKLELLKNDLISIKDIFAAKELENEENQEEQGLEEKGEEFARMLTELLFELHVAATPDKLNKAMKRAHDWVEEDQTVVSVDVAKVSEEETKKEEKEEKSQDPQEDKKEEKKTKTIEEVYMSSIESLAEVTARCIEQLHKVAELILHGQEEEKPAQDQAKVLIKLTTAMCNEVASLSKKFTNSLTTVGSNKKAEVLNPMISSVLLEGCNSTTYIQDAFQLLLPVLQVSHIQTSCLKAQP
UniProt O94988: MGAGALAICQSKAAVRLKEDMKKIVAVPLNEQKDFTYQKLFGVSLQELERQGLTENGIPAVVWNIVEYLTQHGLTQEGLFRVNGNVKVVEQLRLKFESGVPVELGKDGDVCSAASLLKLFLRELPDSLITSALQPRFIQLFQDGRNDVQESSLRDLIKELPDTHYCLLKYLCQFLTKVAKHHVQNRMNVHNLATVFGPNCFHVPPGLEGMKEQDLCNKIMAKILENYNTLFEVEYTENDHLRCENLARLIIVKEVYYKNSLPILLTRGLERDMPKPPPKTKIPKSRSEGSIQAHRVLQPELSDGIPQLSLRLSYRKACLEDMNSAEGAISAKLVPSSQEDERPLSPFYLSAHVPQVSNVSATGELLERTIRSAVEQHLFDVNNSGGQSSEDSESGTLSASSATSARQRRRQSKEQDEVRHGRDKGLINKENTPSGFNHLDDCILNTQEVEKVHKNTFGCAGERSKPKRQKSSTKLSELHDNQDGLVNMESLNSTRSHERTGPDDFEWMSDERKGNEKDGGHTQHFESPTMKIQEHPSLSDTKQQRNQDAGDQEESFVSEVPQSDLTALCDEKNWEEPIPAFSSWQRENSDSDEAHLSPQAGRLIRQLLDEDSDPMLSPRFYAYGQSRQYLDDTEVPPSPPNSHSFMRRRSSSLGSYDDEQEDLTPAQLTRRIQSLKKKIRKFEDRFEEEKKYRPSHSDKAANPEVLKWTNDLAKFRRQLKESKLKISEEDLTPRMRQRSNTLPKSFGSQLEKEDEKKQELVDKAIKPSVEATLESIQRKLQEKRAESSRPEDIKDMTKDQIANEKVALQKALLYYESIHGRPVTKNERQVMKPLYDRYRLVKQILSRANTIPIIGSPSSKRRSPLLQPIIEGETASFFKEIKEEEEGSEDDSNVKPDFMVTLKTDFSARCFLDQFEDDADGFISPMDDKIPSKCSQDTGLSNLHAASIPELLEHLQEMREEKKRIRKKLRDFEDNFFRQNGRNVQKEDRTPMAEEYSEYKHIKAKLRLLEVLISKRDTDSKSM
UniProt Q9H790: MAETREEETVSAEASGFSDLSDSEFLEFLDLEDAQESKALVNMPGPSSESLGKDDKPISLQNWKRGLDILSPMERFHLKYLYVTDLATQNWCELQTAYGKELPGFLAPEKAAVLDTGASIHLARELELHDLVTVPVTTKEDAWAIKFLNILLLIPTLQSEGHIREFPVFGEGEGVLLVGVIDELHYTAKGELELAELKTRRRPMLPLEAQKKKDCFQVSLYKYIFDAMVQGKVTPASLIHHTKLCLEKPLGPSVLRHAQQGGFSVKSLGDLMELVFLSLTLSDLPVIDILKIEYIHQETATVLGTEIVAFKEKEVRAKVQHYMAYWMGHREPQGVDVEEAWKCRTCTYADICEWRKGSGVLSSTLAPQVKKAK
UniProt Q5T8I3: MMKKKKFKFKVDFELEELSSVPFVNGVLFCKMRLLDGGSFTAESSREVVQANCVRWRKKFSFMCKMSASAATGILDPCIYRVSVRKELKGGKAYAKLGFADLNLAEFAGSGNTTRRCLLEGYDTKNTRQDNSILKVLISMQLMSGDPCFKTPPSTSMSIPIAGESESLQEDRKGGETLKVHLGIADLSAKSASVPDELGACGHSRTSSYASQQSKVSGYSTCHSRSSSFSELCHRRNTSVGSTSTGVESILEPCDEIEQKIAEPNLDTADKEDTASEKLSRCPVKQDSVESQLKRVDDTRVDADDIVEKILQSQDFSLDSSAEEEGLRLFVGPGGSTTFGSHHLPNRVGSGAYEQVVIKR
UniProt Q6NZ36: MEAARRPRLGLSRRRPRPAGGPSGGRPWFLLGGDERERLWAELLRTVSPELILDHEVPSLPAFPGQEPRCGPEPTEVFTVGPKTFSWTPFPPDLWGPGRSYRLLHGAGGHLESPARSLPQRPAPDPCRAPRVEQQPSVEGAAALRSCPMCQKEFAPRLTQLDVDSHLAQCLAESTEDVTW
UniProt Q9BVV8: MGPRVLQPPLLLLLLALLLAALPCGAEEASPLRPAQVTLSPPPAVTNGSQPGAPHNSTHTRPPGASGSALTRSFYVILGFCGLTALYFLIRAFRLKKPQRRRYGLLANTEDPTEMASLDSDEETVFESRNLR
UniProt Q96PV7: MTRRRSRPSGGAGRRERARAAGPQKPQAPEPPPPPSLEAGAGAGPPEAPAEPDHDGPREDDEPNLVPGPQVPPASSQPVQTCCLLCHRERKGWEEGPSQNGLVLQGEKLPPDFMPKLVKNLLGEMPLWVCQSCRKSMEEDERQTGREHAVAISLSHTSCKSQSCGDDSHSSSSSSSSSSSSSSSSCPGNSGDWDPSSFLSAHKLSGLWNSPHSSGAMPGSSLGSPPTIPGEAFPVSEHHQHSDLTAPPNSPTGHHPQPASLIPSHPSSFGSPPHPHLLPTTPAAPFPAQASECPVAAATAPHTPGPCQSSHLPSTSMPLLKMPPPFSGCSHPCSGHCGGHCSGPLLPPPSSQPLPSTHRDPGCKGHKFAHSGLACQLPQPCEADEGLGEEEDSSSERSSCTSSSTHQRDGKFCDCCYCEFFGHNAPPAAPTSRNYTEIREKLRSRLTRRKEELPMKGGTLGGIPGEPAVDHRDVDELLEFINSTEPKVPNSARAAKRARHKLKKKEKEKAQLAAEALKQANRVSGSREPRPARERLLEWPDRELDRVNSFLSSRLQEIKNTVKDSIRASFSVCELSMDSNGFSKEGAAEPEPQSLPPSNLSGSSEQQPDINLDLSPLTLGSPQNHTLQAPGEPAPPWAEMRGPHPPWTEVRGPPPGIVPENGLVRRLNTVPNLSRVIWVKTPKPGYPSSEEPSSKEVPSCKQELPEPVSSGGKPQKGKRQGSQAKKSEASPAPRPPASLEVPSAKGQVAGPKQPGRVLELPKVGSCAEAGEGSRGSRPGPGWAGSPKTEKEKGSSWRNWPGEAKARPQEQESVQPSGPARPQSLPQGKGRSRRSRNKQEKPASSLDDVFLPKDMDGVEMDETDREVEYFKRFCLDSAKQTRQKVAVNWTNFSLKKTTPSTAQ

Legend:
Experiment in all cases: log2 fold change, soluble protein after heating vs DMSO (PISA); higher = thermal stabilisation; K562 lysate, 10 uM; active = over 0.2 and 3.5 SD of the protein, either way, in both replicates (recomputed)
[1] = compound: NC1(c2ccc(-c3nc4ccn5c(=O)[nH]nc5c4cc3-c3ccccc3)cc2)CCC1
Method in brief: (§1)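 A 30 min treatment with 10 μM compound was applied to crude K562 extract at 1 mg/mL protein in PBS pH 7.4 with 1 mM MgCl2. Heating for 3 min spanned 48°C-58°C, after which aliquots were pooled, adjusted to 0.5% NP-40 at 4°C and spun at 21,000xg for 90 min. TMTpro 16plex LC-MS/MS of the supernatant, with channel sums equalised, gave values recorded as log-two fold change in thermal stability against solvent controls, from duplicates.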

[2] = compound: Cc1nc(Nc2ncc(C(=O)Nc3c(C)cccc3Cl)s2)cc(N2CCN(CCO)CC2)n1 [dasatinib]
Method in brief: as §1

[3] = compound: Cn1cc(-c2ccc3c(c2)CCN3C(=O)Cc2cccc(C(F)(F)F)c2)c2c(N)ncnc21
Method in brief: as §1

[4] = compound: Cn1cc(CNCC2CCN(c3ncc(C(=O)NO)cn3)CC2)c2ccccc21 [quisinostat]
Method in brief: as §1

[5] = compound: NC(=O)Nc1cc(-c2cccc(F)c2)sc1C(=O)N[C@H]1CCCNC1
Method in brief: as §1

[6] = compound: NC(=O)c1cnc(N[C@@H]2CCCC[C@@H]2N)nc1Nc1cccc(-n2nccn2)c1
Method in brief: as §1

[7] = compound: Cc1cn(-c2cc(NC(=O)c3ccc(C)c(Nc4nccc(-c5cccnc5)n4)c3)cc(C(F)(F)F)c2)cn1 [nilotinib]
Method in brief: as §1

[8] = compound: Cc1nc(Nc2n[nH]c3c2CN(C(=O)N[C@H](CN(C)C)c2ccccc2)C3(C)C)c2sccc2n1
Method in brief: as §1

[9] = compound: Cc1ncc(-c2ccnc(Nc3ccc(S(C)(=O)=O)cc3)n2)n1C(C)C
Method in brief: as §1

[10] = compound: Cn1cncc1[C@@](N)(c1ccc(Cl)cc1)c1ccc2c(c1)c(-c1cccc(Cl)c1)cc(=O)n2C [tipifarnib]
Method in brief: as §1

Measured: log2 fold change

FAM171A2 (UniProt A8MVW0)
inactive: [1] -0.138

FAM104A isoform 2 (UniProt Q969W3)
inactive: [2] -0.825 | [3] 0.57

FAM204A (UniProt Q9H8W3)
inactive: [4] -0.129 | [5] 0.069 | [1] 0.098

ESCO2 (UniProt Q56NI9)
inactive: [2] -0.013 | [3] 0.507 | [4] -0.045 | [5] 0.009 | [6] 0.007 | [1] 0.012

EXOC3L2, A0A1C7CYX0
inactive: [2] -0.04 | [3] 0.078 | [4] 0.11 | [5] -0.017 | [1] -0.029

FAM110A (UniProt Q9BQ89)
inactive: [4] 0.013 | [5] -0.226 | [6] -0.003 | [1] -0.058

FAM32A (UniProt Q9Y421)
inactive: [2] -0.031 | [3] 0.038 | [4] -0.064 | [5] 0.002 | [1] -0.021

ETAA1 (UniProt Q9NY74)
inactive: [1] -0.152

FAM111A (UniProt Q96PZ2)
inactive: [2] -0.097 | [3] 0.015 | [4] 0.18 | [5] 0.039 | [6] 0.035 | [1] -0.037

FAM178B (UniProt Q8IXR5)
inactive: [4] 0.084 | [5] -0.031

FAM114A1 (UniProt Q8IWE2)
inactive: [2] -0.016 | [3] -0.009 | [6] 0.016 | [1] 0.029

FAM13A (UniProt O94988)
inactive: [2] 0.193 | [3] -0.088 | [4] -0.141 | [5] -0.016

FAM185A (UniProt Q8N0U4)
inactive: [2] -0.099 | [3] -0.027 | [4] -0.001 | [5] 0 | [6] -0.028 | [1] -0.14

FAM122B isoform 3 (UniProt Q7Z309)
inactive: [2] -0.091 | [3] 0.037 | [4] -0.004 | [5] -0.029 | [6] 0.042 | [1] -0.183

FAM241A (UniProt Q8N8J7)
inactive: [2] 0.064 | [3] -0.004 | [4] 0.009 | [5] -0.028 | [6] 0.036 | [1] -0.068

EXO5 (UniProt Q9H790)
inactive: [4] -0.082 | [5] -0.071 | [1] 0.08

F2R (UniProt P25116)
inactive: [4] -0.044 | [5] 0.005

FAM171A1 (UniProt Q5VUB5)
inactive: [2] -0.045 | [3] 0.018 | [6] -0.085 | [1] 0.302

FAM102B (UniProt Q5T8I3)
inactive: [4] -0.214 | [5] 0.007 | [6] 0.058 | [1] 0.13

FAM120A, A0A494C0Y9
inactive: [2] -0.061 | [3] -0.145 | [1] 0.071

FAM199X (UniProt Q6PEV8)
inactive: [4] -0.052 | [5] 0.034

ESPN (UniProt B1AK53)
inactive: [2] 0.025 | [3] 0

ERV3-1 (UniProt Q14264)
inactive: [2] -0.096 | [3] 0.203 | [4] 0.109 | [5] 0.056 | [1] -0.03

EXTL3 (UniProt O43909)
inactive: [2] 0.021 | [3] 0.101 | [4] 0.037 | [5] -0.045 | [6] -0.134 | [1] -0.067

EWSR1 (UniProt H7BY36)
inactive: [2] -0.104 | [3] -0.025 | [4] 0.112 | [5] 0.118

FAAP20 isoform 2 (UniProt Q6NZ36)
inactive: [4] 0.057 | [5] -0.038

2 entries drawn at random from those above:
FAM241A (UniProt Q8N8J7)
inactive: [2] 0.064 | [3] -0.004 | [4] 0.009 | [5] -0.028 | [6] 0.036 | [1] -0.068

FAM111A (UniProt Q96PZ2)
inactive: [2] -0.097 | [3] 0.015 | [4] 0.18 | [5] 0.039 | [6] 0.035 | [1] -0.037

(continued)

FAM174C (UniProt Q9BVV8)
inactive: [7] -0.349 | [8] 0.042 | [9] 0.376 | [10] 0.14 | [6] -0.034 | [1] -0.276

FAM193B (UniProt Q96PV7)
inactive: [4] 0.382 | [5] -0.025 | [6] 0.048 | [1] 0.007

ERN1 (UniProt O75460)
inactive: [1] -0.073

FAM234B (UniProt A2RU67)
inactive: [6] -0.046

EXD2 (UniProt Q9NVH0)
inactive: [2] -0.072 | [3] 0.046 | [4] 0.079 | [5] 0.065 | [1] -0.041
